Measured values: PubChem BioAssay AID1671190 (National Center for Advancing Translational Sciences (NCATS), 2021)
Values joined by “and” are separate entries in the source; they are usually repeats but may differ in a detail not shown here. Identical values can stand only once. Among all 580,000 compounds or so, about 6,100 (1.1%) were called active. Inconclusive means that the source gave no clear call. Such entries were picked first, then a sample of the others. Calls come from the whole dose curve; as a rule, active = well fitted inhibition curve with a large enough effect; inconclusive = small, poorly fitted or top-dose-only effect, or another doubt; inactive = no such curve, though single readings can be large or run the other way. Potencies of inconclusive entries are doubtful fits and often do not repeat.

By UniProt entry, the sequences of proteins in these tests, tags left out.
UniProt P18054, whole entry, looked up: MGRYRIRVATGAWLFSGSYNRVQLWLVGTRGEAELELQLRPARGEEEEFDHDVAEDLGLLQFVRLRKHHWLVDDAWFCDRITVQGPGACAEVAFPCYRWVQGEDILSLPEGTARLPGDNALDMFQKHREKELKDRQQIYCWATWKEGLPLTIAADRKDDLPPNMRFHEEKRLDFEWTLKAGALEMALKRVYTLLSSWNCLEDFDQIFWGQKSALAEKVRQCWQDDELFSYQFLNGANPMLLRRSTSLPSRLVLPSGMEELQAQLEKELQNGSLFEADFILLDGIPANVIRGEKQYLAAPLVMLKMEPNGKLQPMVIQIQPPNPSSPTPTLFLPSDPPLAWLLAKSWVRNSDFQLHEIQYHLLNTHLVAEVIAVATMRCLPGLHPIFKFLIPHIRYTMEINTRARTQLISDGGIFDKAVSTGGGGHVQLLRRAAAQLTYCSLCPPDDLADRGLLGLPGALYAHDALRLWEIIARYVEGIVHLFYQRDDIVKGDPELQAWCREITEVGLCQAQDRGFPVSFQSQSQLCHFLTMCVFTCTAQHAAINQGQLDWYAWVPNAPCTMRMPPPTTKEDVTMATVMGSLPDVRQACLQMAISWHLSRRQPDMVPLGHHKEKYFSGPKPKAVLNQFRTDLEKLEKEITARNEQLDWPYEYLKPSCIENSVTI

Target: Polyunsaturated fatty acid lipoxygenase ALOX12 (Homo sapiens) (UniProt P18054)
Experiment: Primary qHTS assay for inhibitors of human arachidonate 12S-lipoxygenase (ALOX12): Round 2
Settings: purified 12hLO, xylenol orange hydroperoxide absorbance; activity change, negative = inhibition: at 108 µM (top of the series) unless noted
Summary of the method: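 Purified human 12hLO (150 nM final) in 25 mM Hepes, 0.01% Triton X-100, pH 7.0 was preincubated 15 min at room temperature with compound. Then 40 uM arachidonic acid was added, 30 min. Hydroperoxide was read by Fe-XO absorbance ratio 573/405 nm.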
% is set by controls: 0 for no effect and ±100 for the full control effect; potency is the fitted concentration of half-maximal effect.

Row | Compound | Potency | activity change, negative = inhibition
1 | Cc1cccc(-c2n[nH]c(=S)n2-c2ccccc2)c1[N+](=O)[O-] | inconclusive: 79.4 µM [inhibitor, partial curve, poor fit] | 
2 | COc1cc(NC(=S)Nc2cccnc2)cc(OC)c1OC | active: 44.7 µM | 
3 | CNC(=O)c1sccc1Oc1ccc(F)cc1[N+](=O)[O-] | inactive | 
4 | Cc1ccc(-c2nc(C(=O)NCc3ccc(F)cc3Cl)no2)cc1 | inconclusive: 10 µM [inhibitor, full curve] | 
5 | O=C(Nc1ccn(CCCN2CCN(Cc3cccc4ccccc34)CC2)c(=O)n1)OCc1ccccc1 | inconclusive: 89.1 µM [inhibitor, single point] | 
6 | Cc1nc(SCC(=O)N2CC(=O)Nc3ccccc32)nc(C)c1C | inactive | 
7 | COCCNC(=O)[C@H]1C[C@H](Oc2cccnc2)CN1C(=O)Nc1cccc(F)c1 | inconclusive: 39.8 µM [inhibitor, single point] | 
8 | Cc1nc(SCC(=O)NC23CC4CC(CC(C4)C2)C3)n(C2CC2)c1C | inconclusive: 79.4 µM [inhibitor, partial curve, poor fit] | 
9 | CN(C)C(=O)C1CCCN1S(=O)(=O)c1c(Cl)cccc1Cl (centres undefined) | inactive | 
10 | C#CCN1C=CC(=O)[C@@H](OC(=O)Nc2ccc(Br)cc2)[C@H]1c1ccccc1Br | inconclusive: 39.8 µM [inhibitor, partial curve, poor fit] | 
11 | CCNC(=O)NC(=O)CN(Cc1ccccc1)c1ccccc1 | inactive | 
12 | CCCCCCCCCCCCCCCC(=O)OC[C@@H](NC(=O)C(Cl)Cl)[C@H](O)c1ccc([N+](=O)[O-])cc1 | inconclusive: 0.109 µM [inhibitor, full curve] | 
13 | CCC(=O)N1CCC(Cc2noc(-c3ccccc3)n2)C1 (centres undefined) | inactive | 
14 | O=C1CCN(c2ncccc2[N+](=O)[O-])CC1 | inconclusive: 2.82 µM [inhibitor, full curve, poor fit] | 
15 | O=C(Nc1nc(-c2ccccc2)cs1)C1CCCN(S(=O)(=O)c2ccccc2)C1 (centres undefined) |  | inconclusive: -32.3% [inhibitor]
16 | COc1ccccc1-n1cc(-c2ccccc2)c2c(=S)nc[nH]c21 | active: 44.7 µM | 
17 | CCN(CC)c1ccc(-c2sc(Nc3ccccc3)n[n+]2-c2ccc(F)cc2)cc1 | inconclusive: 50.1 µM [inhibitor, partial curve, poor fit] | 
18 | CCOc1ccc(-c2cc3c(=O)n(CCNC(=O)C4(c5ccccc5)CC4)ccn3n2)cc1 | inactive | 
19 | O=S(=O)(c1ccccc1)c1cnc2cc3c(cc2c1N1CCN(c2ccccc2)CC1)OCCO3 | inconclusive: 2 µM [inhibitor, full curve, poor fit] | 
20 | Cn1cnnc1SCC(=O)NNC(=O)COc1ccc(Cl)cc1 | inactive | 
21 | CC1CN(CCCOc2ccccc2[N+](=O)[O-])CC(C)O1 (centres undefined) | inconclusive: 0.891 µM [inhibitor, full curve, poor fit] | 
22 | COCCNc1ncnc2ccc(-c3ccccc3CN(C)C)cc12 | inconclusive: 8.91 µM [inhibitor, full curve, poor fit] | 

Row | Compound | Potency | activity change, negative = inhibition
23 | O=c1c2c(-c3ccc(Cl)cc3)csc2ncn1/N=C/c1cccc([N+](=O)[O-])c1O | inconclusive: 50.1 µM [inhibitor, partial curve, poor fit] | 
24 | O=C(NC1CC2CCC1C2)c1ccccc1Cl (centres undefined) | inactive | 
25 | CN(C)CCOCCOc1ccccc1-c1ccccc1 | inconclusive: 0.224 µM [inhibitor, full curve, poor fit] | 
26 | O=C(O)C[C@@H]1CCN(C(=O)c2ccccc2)C[C@@H]1CC1=NCCc2cc(F)ccc21 | inconclusive: 28.2 µM [inhibitor, full curve] | 
27 | Fc1ccc(-c2nnc3ccc(NCCc4ccccn4)nn23)nc1 | inconclusive: 12.6 µM [inhibitor, full curve, poor fit] | 
28 | C=CCSc1nc2c(c(=O)[nH]c(=O)n2C)n1C(C)C | inactive and inconclusive: 35.5 µM [inhibitor, partial curve, poor fit] | 
29 | CCOC(=O)CSc1nc2sc3c(c2c(=O)n1-c1ccccc1)CCN(C)C3 | inconclusive: 31.6 µM [inhibitor, single point] | 
30 | Cc1ccc(CN2CCC(C(=O)c3ccc(F)cc3)CC2)cc1 | inactive | 
31 | COc1ccc(/C=C2\CCn3c2nc2cc(C(=O)O)ccc2c3=O)cc1O | inactive | 
32 | O=c1oc2c3c4c(cc2s1)CCCN4CCC3 | active: 17.8 µM | 
33 | CC(C)Oc1ccc(CNC(=O)c2cc3cccc4c3n2CC(C)S4)cc1 (centres undefined) | inconclusive: 112 µM [inhibitor, partial curve, poor fit] | 
34 | CCCc1cc(=O)oc2cc(OC(C)C(=O)NCc3ccncc3)ccc12 (centres undefined) | inconclusive: 6.31 µM [inhibitor, full curve, poor fit] | 
35 | CN(C)c1cc2c3ccccc3n(C)c2cc1N | inconclusive: 44.7 µM [inhibitor, partial curve, poor fit] | 
36 | N#C/C(=C\c1c[nH]c2ccccc12)C(=O)NC1CCCCC1 | inconclusive: 79.4 µM [inhibitor, partial curve, poor fit] | 
37 | N#C/C(=C\c1ccco1)C(=O)NC1CCCC1 | active: 39.8 µM | 
38 | COc1ccc(/C=N/NC(=O)Cn2cnc3c2c(=O)n(C)c(=O)n3C)c(OC)c1OC | inactive | 
39 | COc1ccc(-c2nnc(SCC(=O)Nc3ncc(C)s3)n2-c2ccccc2)cc1OC | inconclusive: 44.7 µM [inhibitor, partial curve, poor fit] | 
40 | O=C(NC1CCCCCCC1)c1cc(C(F)(F)F)cc(C(F)(F)F)c1 | inactive | 
41 | Cc1ccc2c(c1)Sc1ccccc1CC2=O | inactive | 
42 | CCc1ccc(/C=N/NC(=O)c2cc(C3CC3)nc3ccc(Br)cc23)s1 | inconclusive: 44.7 µM [inhibitor, partial curve, poor fit] | 
43 | CN(C(=O)CSc1nnc(-c2cccnc2)o1)C1(c2ccccc2Cl)CCCCC1=O (centres undefined) | inconclusive: 44.7 µM [inhibitor, partial curve, poor fit] | 
44 | COc1ccc(NC2CCCN(C(=O)C3=NNC(=O)CC3)C2)cc1 (centres undefined) | inconclusive: 89.1 µM [inhibitor, partial curve, poor fit] | 
